No constants are given. Whether binding was seen depends on the method and setting.
Target: Deinococcus radiodurans UvrA1 (Deinococcus radiodurans) (UniProt Q46577)
Test: SEC; size-exclusion chromatography of drUvrA1 with drUvrB; told only in the discussion, no conditions or figure given; both purified

Sequences of proteins named here, by UniProt entry; tags and fusion partners are left off.
UniProt Q46577: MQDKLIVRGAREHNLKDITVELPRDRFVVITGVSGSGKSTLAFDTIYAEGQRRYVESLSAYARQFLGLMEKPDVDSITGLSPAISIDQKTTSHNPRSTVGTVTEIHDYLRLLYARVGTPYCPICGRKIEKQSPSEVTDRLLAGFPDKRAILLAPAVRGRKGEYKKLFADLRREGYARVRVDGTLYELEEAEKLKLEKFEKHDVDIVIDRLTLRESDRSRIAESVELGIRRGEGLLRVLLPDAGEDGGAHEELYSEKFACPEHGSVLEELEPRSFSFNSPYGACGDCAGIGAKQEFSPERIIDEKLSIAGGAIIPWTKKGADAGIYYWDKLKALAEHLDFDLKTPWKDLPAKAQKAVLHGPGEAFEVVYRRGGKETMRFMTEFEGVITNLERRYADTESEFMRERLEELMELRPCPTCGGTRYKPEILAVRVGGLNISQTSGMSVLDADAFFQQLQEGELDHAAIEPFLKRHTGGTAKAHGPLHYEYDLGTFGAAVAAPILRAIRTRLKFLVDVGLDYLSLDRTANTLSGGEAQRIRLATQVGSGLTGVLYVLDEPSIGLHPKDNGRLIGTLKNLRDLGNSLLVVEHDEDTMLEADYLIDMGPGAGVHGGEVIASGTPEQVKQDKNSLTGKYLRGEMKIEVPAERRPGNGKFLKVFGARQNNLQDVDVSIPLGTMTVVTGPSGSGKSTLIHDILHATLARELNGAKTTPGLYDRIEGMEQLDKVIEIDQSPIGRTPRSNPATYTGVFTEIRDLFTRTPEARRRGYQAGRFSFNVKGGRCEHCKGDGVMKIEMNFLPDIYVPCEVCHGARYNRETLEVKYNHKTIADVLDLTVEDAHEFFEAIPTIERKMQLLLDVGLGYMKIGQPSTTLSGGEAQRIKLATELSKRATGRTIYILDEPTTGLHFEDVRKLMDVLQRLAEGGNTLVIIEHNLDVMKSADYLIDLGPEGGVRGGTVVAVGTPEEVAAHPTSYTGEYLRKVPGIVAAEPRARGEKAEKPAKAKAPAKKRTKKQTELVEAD

B1: Deinococcus radiodurans UvrB (protein, UniProt Q9RS52 60-730)
chain: MLKVRSEFKPSGDQPTAIASLVDGLESGLRYQTLLGATGTGKTYSMAKVIEEVQRPALIMAPNKILTAQLASEFREFFPDAAVEFFISYYDYYQPEAYVPGKDLFIEKDASVNQEIERLRHSTTRSLLTRRDTIVVASVSCIYGLGDPKEYTALNAIVKKGGVMPRDELLGRLVNMQYERNDIELMPGRFSVKGETVTVWPAYDEQPLRIELWGDDVERISVVHPLTGERLGDLDATVVYPAKHYVSSAGNIERAIGSIQQELDERLEYFHSVGKLLEAQRLKERTLYDLEMLKVLGYCSGIENYSRHIDGRAPGATPYTMLDYFPDDFITFIDESHVTVPQIGGMANGDRARKQTLVDYGFRLPSAMDNRPLNFEEFLSKTGQTVFVSATPGPFENQVSDSVADQIIRPTGLVDPEVTIRPIQGQIEDLLGRVRERTAAGERTLVTTLTKRMSEDLTEYLLEKGVKARYLHSDIDSVERQVIIRDLRLGHYDVLVGINLLREGLDLPEVSLVAILDADKPGFLRSDRALIQTIGRAARNVNGEVILYADVVTPAMRFAMDETARRREKQLAYNEEHGITPRTVIKGVRDVIRGEELEGEISSENVSGDRDSLTAQLTDLELDMWQASEAMDFEKAASLRDQIRAIEAKLQGKEFKQATVPGQKARRKGRR
binding: no binding
